In patent US20090092971A1:
These are yes or no findings as the source states them, for the method shown. Binding seen in cells or lysates may run through a third protein. Some entries that bind do so weakly or less than the wild type.

By UniProt entry, the sequences of proteins in these tests, tags left out. Residues count along the entry.
UniProt P61586, residues 1-190: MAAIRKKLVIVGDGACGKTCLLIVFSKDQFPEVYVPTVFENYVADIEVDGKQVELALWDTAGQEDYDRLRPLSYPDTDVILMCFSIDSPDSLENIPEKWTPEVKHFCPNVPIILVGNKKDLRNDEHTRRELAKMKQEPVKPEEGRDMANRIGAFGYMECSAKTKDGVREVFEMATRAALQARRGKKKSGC

Biological target: active RhoA (UniProt P61586)
Assay: pull-down from cell extracts with GST-Rhotekin-RBD, western blot with a RhoA-specific antibody

binding: binds
Substance: GST-Rhotekin-RBD (Rho-binding domain) (from UniProt Q9BST9 7-89)
